From PMC6014458 come the findings set out here.

By UniProt entry, the sequences of proteins in these tests, tags left out.
UniProt Q9Y2J0: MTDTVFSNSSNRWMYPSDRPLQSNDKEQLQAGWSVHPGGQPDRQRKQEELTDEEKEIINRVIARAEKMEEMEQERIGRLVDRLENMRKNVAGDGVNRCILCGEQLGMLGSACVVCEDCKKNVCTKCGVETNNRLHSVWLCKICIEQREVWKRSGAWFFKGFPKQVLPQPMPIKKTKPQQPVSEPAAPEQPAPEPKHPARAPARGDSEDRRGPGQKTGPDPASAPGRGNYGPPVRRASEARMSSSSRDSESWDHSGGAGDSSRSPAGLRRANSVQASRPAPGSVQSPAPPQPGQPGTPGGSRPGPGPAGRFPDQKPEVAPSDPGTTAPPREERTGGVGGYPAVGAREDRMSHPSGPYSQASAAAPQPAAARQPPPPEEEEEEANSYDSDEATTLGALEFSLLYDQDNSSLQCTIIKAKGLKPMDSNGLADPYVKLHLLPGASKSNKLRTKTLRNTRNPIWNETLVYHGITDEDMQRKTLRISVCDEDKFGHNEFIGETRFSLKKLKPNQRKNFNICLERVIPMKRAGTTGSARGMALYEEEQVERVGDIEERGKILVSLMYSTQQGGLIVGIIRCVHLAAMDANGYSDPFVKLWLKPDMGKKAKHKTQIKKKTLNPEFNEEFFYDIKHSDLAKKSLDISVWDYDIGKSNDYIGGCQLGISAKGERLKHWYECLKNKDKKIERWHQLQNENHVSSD

In the assay the target is T1, GST-14-3-3 eta fusion protein (UniProt Q04917).
T1 sequence: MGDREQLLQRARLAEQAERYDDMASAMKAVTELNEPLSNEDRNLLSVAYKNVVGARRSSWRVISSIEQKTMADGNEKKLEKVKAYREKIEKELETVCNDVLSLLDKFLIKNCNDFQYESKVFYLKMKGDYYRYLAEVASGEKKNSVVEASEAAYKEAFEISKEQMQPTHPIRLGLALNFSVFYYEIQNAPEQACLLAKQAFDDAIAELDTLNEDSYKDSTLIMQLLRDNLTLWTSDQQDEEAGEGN
In words: pull-down; GST or GST-14-3-3 eta fusion protein purified on Glutathione 4B beads, incubated ~1 hr with solubilized lysates of HEK cells transiently transfected with rabphilin 3a constructs; after washing, bound rabphilin 3a eluted and detected by immunoblotting with anti-rabphilin 3a antibody; only the target purified.

Results are given in words; binding and its absence hold for the method and conditions named. Binding seen in cells or lysates may run through a third protein. Some entries that bind do so weakly or less than the wild type. Sequences can lack the tags named with a protein.

In the case of “rabphilin 3a WT (from UniProt Q9Y2J0 1-694)”, the binding result is “binds”.
